Binding data for one substance are collected here from publication PMC10276294, “Regulatory ligand binding in plant chalcone isomerase–like (CHIL) proteins” (The Journal of Biological Chemistry, 2023).

No constants are given. Whether binding was seen depends on the method and setting. For some assays here: A result given as binding can be weak or reduced; the word gives no strength. Sequences can lack the tags named with a protein.

Experiment [1] deals with T1, Strep-tagged chalcone synthase from Arabidopsis thaliana (strep-AtCHS) (Arabidopsis thaliana) (UniProt P13114).
T1 sequence: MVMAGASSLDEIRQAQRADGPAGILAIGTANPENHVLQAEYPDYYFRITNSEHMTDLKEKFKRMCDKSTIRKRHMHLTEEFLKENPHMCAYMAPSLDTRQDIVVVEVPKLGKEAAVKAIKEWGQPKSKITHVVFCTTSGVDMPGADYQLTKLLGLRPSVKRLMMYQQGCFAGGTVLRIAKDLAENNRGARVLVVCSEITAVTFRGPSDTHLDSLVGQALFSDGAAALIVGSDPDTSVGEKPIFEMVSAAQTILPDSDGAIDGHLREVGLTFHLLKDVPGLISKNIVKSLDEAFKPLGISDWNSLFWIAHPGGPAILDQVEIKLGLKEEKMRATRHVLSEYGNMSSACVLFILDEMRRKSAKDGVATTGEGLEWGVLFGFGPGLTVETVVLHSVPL
Nature of the experiment: pull-down; 1 mg strep-tagged CHS on 0.3 ml StrepTactin Sepharose, 0.5 mg untagged CHIL; room temperature; 150 mM NaCl, 50 mM Tris pH 8.0, 2 mM DTT, 2% DMSO; without ligand, or with naringenin or naringenin chalcone (NC) at the reported concentrations; eluted with desthiobiotin, SDS-PAGE and native PAGE, densitometry; both purified.

Experiment [2] concerns the target T1, Strep-tagged chalcone synthase from Arabidopsis thaliana (strep-AtCHS) (Arabidopsis thaliana). The experiment in a line: pull-down; as a1, with 4.30 mM naringenin in binding and wash buffers (strep-AtCHS on StrepTactin Sepharose, untagged VvCHIL); both purified.

For the substance “Chalcone isomerase-like protein from Vitis vinifera (VvCHIL)”, the binding entry is recorded as “binds” in experiment [1] and “no binding (only with 4.30 mM naringenin)” in experiment [2].
